Assay results from article PMC10297930.
Results are given in words; binding and its absence hold for the method and conditions named. Binding seen in cells or lysates may run through a third protein. Some binding calls cover weakened binding; strength is not graded here. Tags and fused reporters may be left off the sequences shown.

The chains behind the UniProt entries cited, without tags or fusion partners.
UniProt Q15717: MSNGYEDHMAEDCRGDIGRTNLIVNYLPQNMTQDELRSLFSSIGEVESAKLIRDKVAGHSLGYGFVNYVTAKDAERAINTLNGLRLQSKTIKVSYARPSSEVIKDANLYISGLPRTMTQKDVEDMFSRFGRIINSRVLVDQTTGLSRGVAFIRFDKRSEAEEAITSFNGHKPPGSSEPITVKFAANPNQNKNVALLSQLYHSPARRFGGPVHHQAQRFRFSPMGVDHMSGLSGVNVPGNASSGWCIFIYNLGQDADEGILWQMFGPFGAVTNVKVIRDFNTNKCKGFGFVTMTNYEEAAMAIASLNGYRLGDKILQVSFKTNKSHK

T1: Zeb1/GFP fusion protein (UniProt P37275)
T1 sequence: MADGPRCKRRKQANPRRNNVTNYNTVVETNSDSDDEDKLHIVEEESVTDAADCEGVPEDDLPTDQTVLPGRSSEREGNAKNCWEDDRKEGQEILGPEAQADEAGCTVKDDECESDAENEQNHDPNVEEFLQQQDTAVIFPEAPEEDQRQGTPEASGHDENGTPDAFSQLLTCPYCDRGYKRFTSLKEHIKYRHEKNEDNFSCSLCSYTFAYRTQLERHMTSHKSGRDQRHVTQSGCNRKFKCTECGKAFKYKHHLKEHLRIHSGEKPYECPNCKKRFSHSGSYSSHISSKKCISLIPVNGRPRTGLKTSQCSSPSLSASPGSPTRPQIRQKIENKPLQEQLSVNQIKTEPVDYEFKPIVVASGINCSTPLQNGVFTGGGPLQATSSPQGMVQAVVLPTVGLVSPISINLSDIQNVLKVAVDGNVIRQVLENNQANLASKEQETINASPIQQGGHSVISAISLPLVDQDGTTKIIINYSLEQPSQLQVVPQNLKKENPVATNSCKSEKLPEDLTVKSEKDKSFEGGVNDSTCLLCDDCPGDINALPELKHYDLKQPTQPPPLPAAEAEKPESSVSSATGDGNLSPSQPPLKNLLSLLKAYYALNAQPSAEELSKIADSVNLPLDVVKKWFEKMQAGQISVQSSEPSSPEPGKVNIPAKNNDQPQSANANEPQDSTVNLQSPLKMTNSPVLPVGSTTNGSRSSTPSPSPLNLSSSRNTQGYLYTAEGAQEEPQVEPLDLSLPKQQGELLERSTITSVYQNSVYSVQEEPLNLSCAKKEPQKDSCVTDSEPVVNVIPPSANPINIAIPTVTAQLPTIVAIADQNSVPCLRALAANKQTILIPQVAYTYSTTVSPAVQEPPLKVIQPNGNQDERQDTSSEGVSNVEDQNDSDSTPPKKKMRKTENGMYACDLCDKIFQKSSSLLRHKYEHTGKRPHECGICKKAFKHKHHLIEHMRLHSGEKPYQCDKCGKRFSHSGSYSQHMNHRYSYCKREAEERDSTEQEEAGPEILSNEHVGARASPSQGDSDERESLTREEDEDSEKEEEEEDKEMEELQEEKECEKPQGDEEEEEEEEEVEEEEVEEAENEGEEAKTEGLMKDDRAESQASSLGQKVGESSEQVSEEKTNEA

B1: E3 ubiquitin-protein ligase TRIM33 (TRIM33) (protein, UniProt Q9UPN9 1-1127)
chain: MAENKGGGEAESGGGGSGSAPVTAGAAGPAAQEAEPPLTAVLVEEEEEEGGRAGAEGGAAGPDDGGVAAASSGSAQAASSPAASVGTGVAGGAVSTPAPAPASAPAPGPSAGPPPGPPASLLDTCAVCQQSLQSRREAEPKLLPCLHSFCLRCLPEPERQLSVPIPGGSNGDIQQVGVIRCPVCRQECRQIDLVDNYFVKDTSEAPSSSDEKSEQVCTSCEDNASAVGFCVECGEWLCKTCIEAHQRVKFTKDHLIRKKEDVSESVGASGQRPVFCPVHKQEQLKLFCETCDRLTCRDCQLLEHKEHRYQFLEEAFQNQKGAIENLLAKLLEKKNYVHFAATQVQNRIKEVNETNKRVEQEIKVAIFTLINEINKKGKSLLQQLENVTKERQMKLLQQQNDITGLSRQVKHVMNFTNWAIASGSSTALLYSKRLITFQLRHILKARCDPVPAANGAIRFHCDPTFWAKNVVNLGNLVIESKPAPGYTPNVVVGQVPPGTNHISKTPGQINLAQLRLQHMQQQVYAQKHQQLQQMRMQQPPAPVPTTTTTTQQHPRQAAPQMLQQQPPRLISVQTMQRGNMNCGAFQAHQMRLAQNAARIPGIPRHSGPQYSMMQPHLQRQHSNPGHAGPFPVVSVHNTTINPTSPTTATMANANRGPTSPSVTAIELIPSVTNPENLPSLPDIPPIQLEDAGSSSLDNLLSRYISGSHLPPQPTSTMNPSPGPSALSPGSSGLSNSHTPVRPPSTSSTGSRGSCGSSGRTAEKTSLSFKSDQVKVKQEPGTEDEICSFSGGVKQEKTEDGRRSACMLSSPESSLTPPLSTNLHLESELDALASLENHVKIEPADMNESCKQSGLSSLVNGKSPIRSLMHRSARIGGDGNNKDDDPNEDWCAVCQNGGDLLCCEKCPKVFHLTCHVPTLLSFPSGDWICTFCRDIGKPEVEYDCDNLQHSKKGKTAQGLSPVDQRKCERLLLYLYCHELSIEFQEPVPASIPNYYKIIKKPMDLSTVKKKLQKKHSQHYQIPDDFVADVRLIFKNCERFNEMMKVVQVYADTQEINLKADSEVAQAGKAVALYFEDKLTEIYSDRTFAPLPEFEQEEDDGEVTEDSDEDFIQPRRKRLKSDERPVHIK

Target: T1, Zeb1/GFP fusion protein
Assay: co-IP; Zeb1/GFP immunoprecipitated from MCF7 nuclear extracts on anti-GFP llama nano-antibody magnetic beads; partners detected by Western blot; cells wt p53 or shp53, low or high SORE6-mCherry reporter

Row | Molecule | binding
1 | C-terminal-binding protein 2 (CTBP2) (from UniProt P56545 1-445) | binds
2 | ELAV-like protein 1 (ELAVL1) (from UniProt Q15717 1-326) | binds
3 | B1 | binds
